PubChem BioAssay AID1259415 (National Center for Advancing Translational Sciences (NCATS), 2018)
Hit rate of the full screen: of about 410,000 compounds, about 18,000 (4.4%) were called active. Inconclusive results, whose numbers are uncertain, are shown with a selection of clear calls. Cut-off read from the data, not from the text of the source: active = activity change below about -60%; inconclusive = no clear call, values can overlap the other calls; inactive = above about -39%.

Assay: qHTS Assay for inhibitors of the human cytomegalovirus (HCMV)
Settings: HFF cells, HCMV-luciferase reporter, 72 h; at 57.5 µM; hits give low values
In short: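 Steps: HFFs plated, 16 h 37C; compounds added; HCMV-luciferase added to MOI 1 PFU/cell; 72 h 37C; OneGlo reagent, 5 min room temperature; luminescence read, normalized to controls.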
% is set by controls: 0 for no effect and ±100 for the full control effect.

Structure (SMILES)	activity change, negative = inhibition
CC(=O)c1cc(C)ccc1OC(=O)c1cccc2nc(C)oc12	inconclusive: -49.6%
CC(c1ccccn1)C(C)(O)C(C)c1ccccn1 (stereo not drawn)	inactive: -17.2%
COC(=O)CSc1nnc(CNC(=O)c2ccccc2F)n1-c1ccccc1	inactive: -7.41%
CC(C)(C)C1=Nn2c(nnc2-c2ccccn2)SC1	inactive: -20.8%
COc1ccccc1CNc1nc(NCc2ccccc2)nc2ccsc12	inconclusive: -52.6%
COc1ccc(-c2csc(NC(=O)C3CSC4(C)CCC(=O)N34)n2)cc1OC (stereo not drawn)	inconclusive: -42.2%
Cc1ccc(C[n+]2cc(-c3ccc(Cl)cc3)n3c2CCC3)cc1	active: -60.6%
O=C(OCCN1C(=O)c2cccc3c(N4CCOCC4)ccc(c23)C1=O)c1ccc(Cl)cc1	inconclusive: -48.1%
CCC(C)(C)n1nnnc1C(C(C)C)N1CCSCC1 (stereo not drawn)	inconclusive: -43.5%
CN(C)C(=O)Oc1ccc2c(c1)O/C(=C\c1cccc(Cl)c1)C2=O	inconclusive: -50.1%
Cc1ccc(C2CCN(C(=O)c3cnn(-c4ccccc4Cl)c3C3CCN(C(=O)OC(C)(C)C)CC3)C2)cc1 (stereo not drawn)	inconclusive: -52.6%
CN(C)c1ccc(N=Nc2ccccc2C(=O)OCC(=O)N(C)c2ccccc2)cc1	inconclusive: -41.8%
Cc1ccccc1NC(=O)c1ccccc1O	inconclusive: -41.4%
CC(C)(C)NC(=O)/C(=C/c1cccnc1)NC(=O)c1ccco1	active: -61.3%
COc1ccc2nc(N(CCN(C)C)C(=O)/C=C/c3cccs3)sc2c1	active: -70.1%
CCOc1ccccc1/C=N/n1c(COc2ccccc2)n[nH]c1=S	inconclusive: -54.4%
CCOC(=O)C1(CCOC)CCN(Cc2ccc(COC)o2)CC1	inactive: 0.74%
Cn1nc(C(=O)N2CCN(c3ccccc3)CC2)c2c1-c1ccccc1SC2	inconclusive: -50.8%
O=C(c1ccc2c(c1)OCO2)c1cn(Cc2ccc(F)cc2)c2ccccc2c1=O	inactive: -9.62%
COc1ccccc1NS(=O)(=O)c1ccc2c(c1)OCCO2	inconclusive: -41.4%
CCOC(=O)Cc1csc(Nc2c(C)n(C)n(-c3ccccc3)c2=O)n1	inactive: -10.6%
CC(C)COc1cccc(C(=O)NC2(C)CCS(=O)(=O)C2)c1 (stereo not drawn)	inactive: -1.44%

Structure (SMILES)	activity change, negative = inhibition
COc1ccc(-c2ccc3c(c2)S(=O)(=O)c2cccc(C(=O)NCCOc4ccccc4Cl)c2C3=O)cc1OC	active: -97.6%
CCn1c(SCC(=O)c2ccccc2)nnc1-c1cccs1	inactive: 2.56%
CC1CCCC(NC(=S)NC(=O)c2ccco2)C1C (stereo not drawn)	inconclusive: -45.5%
Cc1ccc(NC(=S)N(CCCN2CCN(C)CC2)Cc2cccs2)cc1C	inconclusive: -48.9%
Cc1ccc(Cn2nnc3c(=O)[nH]c(C4CCN(S(=O)(=O)Cc5ccccc5)CC4)nc32)cc1	inactive: 27.3%
Cn1cc(Br)c(C(=O)NC(=S)Nc2ccc(S(N)(=O)=O)cc2)n1	inconclusive: -48.4%
CN1C(=O)C(C)(C)c2cc(S(=O)(=O)NCc3ccc(C(=O)Nc4ccc(Cl)cc4)cc3)ccc21	inconclusive: -57.6%
O=c1[nH]c(=S)[nH]c2c1C(c1cc([N+](=O)[O-])c(N3CCOCC3)cc1N1CCOCC1)O2 (stereo not drawn)	inconclusive: -44.7%
Fc1cccc(COc2ccccc2C(=S)N2CCCC2)c1	inconclusive: -46.7%
CC(CN1CCN(C)CC1)OC(=O)c1ccc(F)cc1 (stereo not drawn)	active: -71.4%
COc1cc(NS(C)(=O)=O)ccc1Nc1c2ccccc2nc2ccccc12	active: -96.8%
CN(C)c1cccc(C(=O)OCC(=O)N2CCc3ccccc3C2)c1	inconclusive: -43%
Cc1ccc2[nH]c3nc(SCC#N)nnc3c2c1	inconclusive: -41.6%
COc1ccccc1NC(=O)C1=C(C)NC(=O)NC1c1ccccc1F (stereo not drawn)	inactive: -13.8%
Cc1ccc(Cn2ncc3c(N4CCN(C5CCCC5)CC4)ncnc32)cc1	inconclusive: -44.4%
CCCCNC(=O)C1(C)CCCCN1C(=O)c1cc(-c2ccccc2)cs1 (stereo not drawn)	inactive: -7.15%
Cc1cc(C)nc(SCc2nnc(SCC#N)n2-c2cccc(Cl)c2)n1	inactive: -7.47%
CN(C)CC/C=C1\c2ccc(F)cc2Sc2cc(F)c(Cl)cc21	active: -108%
COc1ccc(-c2csc(NC(=O)C3CCN(c4ncnc5sc(C)c(C)c45)CC3)n2)cc1OC	active: -99.5%
Cc1occc1C(=O)N/N=C/C1=C(N2CCOCC2)C(=C\c2ccc(Cl)cc2)/CC1	inactive: -31.5%
COc1ccc(C(=O)CCC(=O)N2CCN(c3cc(C)ccc3C)CC2)cc1	inconclusive: -58.9%
CCC(CC)C(=O)N(C)c1c(C)nc2c(OCc3cccc(OC)c3)cccn12	inactive: -21.2%

Laid out differently: results already given
Cc1ccc(C[n+]2cc(-c3ccc(Cl)cc3)n3c2CCC3)cc1
  activity change, negative = inhibition: active: -60.6%
CCC(C)(C)n1nnnc1C(C(C)C)N1CCSCC1 (stereo not drawn)
  activity change, negative = inhibition: inconclusive: -43.5%
CCOc1ccccc1/C=N/n1c(COc2ccccc2)n[nH]c1=S
  activity change, negative = inhibition: inconclusive: -54.4%
COc1cc(NS(C)(=O)=O)ccc1Nc1c2ccccc2nc2ccccc12
  activity change, negative = inhibition: active: -96.8%

(next part)

Structure (SMILES)	activity change, negative = inhibition
Fc1cccc(/C=N/Nc2ccc(Cl)nn2)c1	inactive: 13.1%
N#CC(C#N)=C1C=CC=CN1/C(=C\c1ccco1)C(=O)c1ccc(-c2ccccc2)cc1	active: -101%
O=C(COc1nncc2ccccc12)Nc1ccc(F)c(F)c1	active: -101%
CCOc1ccc(C(=O)NC(=S)NCCCN2CCOCC2)cc1	inconclusive: -45.1%
COC(=O)CSc1nc(N)c(C#N)c(-c2ccco2)c1C#N	inactive: -16.3%
O=C(O)c1ccc(S(=O)(=O)/N=C2\C=C(Nc3ccccc3F)C(=O)c3ccccc32)cc1	active: -98.3%
COc1cc(C(=O)N2CCN(S(=O)(=O)c3cccs3)CC2)cc(OC)c1C	inactive: -37.9%
COc1ccc(-n2cnc3cc(C(=O)N4CCOCC4)ccc32)cc1	inactive: 19.5%
CCN(CC)S(=O)(=O)c1cccc(-c2nn(-c3ccccc3)cc2/C=C(\C#N)C(=O)NCc2ccco2)c1	inconclusive: -47.2%
Cc1cc(C)c(OCCCCN2CCC(C)CC2)c(Br)c1	inconclusive: -43.4%
CC(C)(C)NCC(O)COc1c(F)cc(Br)cc1F (stereo not drawn)	inactive: -11.7%
O=C(COc1ccc2c(c1)CCC2)N1CCc2ccccc21	inactive: 23%
COc1cc(/C=N/NC(=O)COc2cc(C)cc(C)c2)ccc1OS(=O)(=O)c1ccc(C)cc1	inconclusive: -53.8%
COc1ccc(N(C(=O)c2snc(C(N)=O)c2N)C(C(=O)NCc2ccccc2)c2ccc(F)cc2)c(OC)c1 (stereo not drawn)	active: -80.4%
O=C(COC(=O)COc1ccccc1)NC1CCCC1	inconclusive: -43%
CCOC(=O)C1=C(c2ccccc2)NC(=O)NC1c1ccc(O)c(OCC)c1 (stereo not drawn)	inactive: -30.3%
CC(=O)Nc1cccc(C(=O)/C=C/c2ccc(/C=C/C(=O)c3cccc(NC(C)=O)c3)cc2)c1	active: -87.9%
COc1ccc(Cl)cc1NC(=O)CSc1nccn1Cc1ccco1	inconclusive: -53.5%
O=C(CSc1ncn[nH]1)Nc1nc(-c2cccc([N+](=O)[O-])c2)cs1	inconclusive: -53.2%
COc1cccc(NC(=O)CSc2nc3ccccc3nc2N2CCOCC2)c1	inconclusive: -57%
Cc1csc2nc(COC(=O)c3ccccc3NC(=O)c3ccc(F)cc3)cc(=O)n12	inconclusive: -56.7%
CSCCC(NC(=O)c1ccco1)C(=O)NCC(C)(C)N1CCOCC1 (stereo not drawn)	inconclusive: -40.3%

Structure (SMILES)	activity change, negative = inhibition
COc1ccccc1/C=C/C(=O)OCC(=O)NC1CC1	inconclusive: -41.1%
O=C(C[n+]1ccn(CCCNP2(=O)C=C(c3ccccc3)OC(c3ccccc3)=C2)c1)c1ccccc1	inconclusive: -51.5%
CCCCn1c2ccc(F)cc2c2nnc(SCCN(CC)CC)nc21	inconclusive: -51.6%
CCn1c(SCC(=O)Nc2ccc(OC)cc2)nc2c(c1=O)SCC2	inconclusive: -43.6%
Cc1ccccc1NC1=NCC(c2ccc([N+](=O)[O-])cc2)S1 (stereo not drawn)	inconclusive: -58.8%
CS(=O)(=O)CCN1CC2CCCC(C2)C1	inconclusive: -50.3%
Cc1cccc(NC(=S)NC2CC3C=CC2C3)c1 (stereo not drawn)	inconclusive: -47.8%
CN1C(=O)C(C2(O)C(=O)N(Cc3ccccc3)c3cc(Br)ccc32)c2ccccc21 (stereo not drawn)	inconclusive: -42.8%
COc1ccnc(Oc2ccc(Cl)cc2)c1C#N	inconclusive: -53.2%
CCOC(=O)CSC1=C(C#N)C(c2ccccc2OCC)C(C#N)C(=O)N1 (stereo not drawn)	inconclusive: -49%
COc1cccc(/C=C(\C#N)C(=O)NC2CCS(=O)(=O)C2)c1 (stereo not drawn)	inconclusive: -56.3%
Cc1ccc(C2(c3noc(CN4CCC(c5ccncc5)CC4)n3)CCCC2)cc1	inconclusive: -47.5%
Cc1ccc(C(=O)Nc2c(C(=O)NCc3ccc(Cl)cc3)sc3nc(C)cc(C)c23)cc1	inconclusive: -54.6%
O=C(CSc1ccccn1)Nc1ccc(Cl)cn1	inconclusive: -41.6%
Cc1ccccc1NC(=O)NCCN1CC1	inconclusive: -51.4%
Cn1c2c(c(=O)[nH]c1=O)C(c1cccc(O)c1)C1=C(N2)c2ccccc2C1=O (stereo not drawn)	active: -99.7%
CCOC(=O)c1cc(S(=O)(=O)N2CCN(c3ccc(OC)cc3)CC2)[nH]n1	active: -112%
CCCn1c(=O)c(C(=O)NNC(=O)c2cccc([N+](=O)[O-])c2)c(O)c2ccccc21	inactive: -7.45%
O=C(CCC(=O)c1ccc(Cl)cc1)OCC(=O)c1ccccc1	active: -64.8%
CCCCNC(=S)NNC(=O)c1ccc(Br)o1	inactive: -26.3%
O=C(Nc1cc(C(F)(F)F)ccc1N1CCOCC1)c1cccc(S(=O)(=O)N2CCOCC2)c1	inconclusive: -40.3%
COC(c1ccc(Cl)cc1)(c1ccc(Cl)cc1)C(Oc1nc(C)cc(C)n1)C(=O)O (stereo not drawn)	inconclusive: -40.9%
